Reference: patent US6824971
No constants are given. Whether binding was seen depends on the method and setting. Binding seen in cells or lysates may run through a third protein. Some entries that bind do so weakly or less than the wild type. Each block holds one substance with its values, some of them ahead of it.

Sequences of proteins named here, by UniProt entry; tags and fusion partners are left off. A change or cut given only in a name is not applied to a line headed by its entry.
UniProt P36897: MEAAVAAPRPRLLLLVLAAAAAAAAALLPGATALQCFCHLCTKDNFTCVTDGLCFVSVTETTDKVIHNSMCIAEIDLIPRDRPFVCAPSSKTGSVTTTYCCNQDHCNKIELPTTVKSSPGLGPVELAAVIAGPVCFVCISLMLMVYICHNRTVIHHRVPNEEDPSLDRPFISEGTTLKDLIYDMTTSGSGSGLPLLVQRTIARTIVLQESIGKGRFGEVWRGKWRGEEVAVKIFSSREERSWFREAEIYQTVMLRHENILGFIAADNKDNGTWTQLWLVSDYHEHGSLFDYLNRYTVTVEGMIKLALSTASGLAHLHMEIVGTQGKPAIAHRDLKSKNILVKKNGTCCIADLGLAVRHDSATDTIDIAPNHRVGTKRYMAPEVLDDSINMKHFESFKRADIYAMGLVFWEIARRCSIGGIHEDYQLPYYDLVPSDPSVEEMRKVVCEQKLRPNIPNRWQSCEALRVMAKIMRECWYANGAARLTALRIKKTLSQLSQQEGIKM
UniProt O00238: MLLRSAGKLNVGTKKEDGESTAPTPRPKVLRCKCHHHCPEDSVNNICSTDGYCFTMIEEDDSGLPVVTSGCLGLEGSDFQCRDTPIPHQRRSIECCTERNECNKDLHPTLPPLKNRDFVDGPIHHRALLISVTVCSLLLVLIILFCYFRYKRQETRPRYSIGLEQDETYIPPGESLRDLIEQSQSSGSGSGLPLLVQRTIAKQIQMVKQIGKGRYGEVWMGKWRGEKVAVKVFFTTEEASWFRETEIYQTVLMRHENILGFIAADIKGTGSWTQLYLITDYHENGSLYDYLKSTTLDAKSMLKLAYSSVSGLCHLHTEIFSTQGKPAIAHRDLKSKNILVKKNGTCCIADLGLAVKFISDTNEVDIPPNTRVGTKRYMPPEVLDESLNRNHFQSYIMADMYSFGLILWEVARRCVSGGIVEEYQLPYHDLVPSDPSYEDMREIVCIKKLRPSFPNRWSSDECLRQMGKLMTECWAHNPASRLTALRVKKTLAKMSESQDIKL
UniProt Q13873: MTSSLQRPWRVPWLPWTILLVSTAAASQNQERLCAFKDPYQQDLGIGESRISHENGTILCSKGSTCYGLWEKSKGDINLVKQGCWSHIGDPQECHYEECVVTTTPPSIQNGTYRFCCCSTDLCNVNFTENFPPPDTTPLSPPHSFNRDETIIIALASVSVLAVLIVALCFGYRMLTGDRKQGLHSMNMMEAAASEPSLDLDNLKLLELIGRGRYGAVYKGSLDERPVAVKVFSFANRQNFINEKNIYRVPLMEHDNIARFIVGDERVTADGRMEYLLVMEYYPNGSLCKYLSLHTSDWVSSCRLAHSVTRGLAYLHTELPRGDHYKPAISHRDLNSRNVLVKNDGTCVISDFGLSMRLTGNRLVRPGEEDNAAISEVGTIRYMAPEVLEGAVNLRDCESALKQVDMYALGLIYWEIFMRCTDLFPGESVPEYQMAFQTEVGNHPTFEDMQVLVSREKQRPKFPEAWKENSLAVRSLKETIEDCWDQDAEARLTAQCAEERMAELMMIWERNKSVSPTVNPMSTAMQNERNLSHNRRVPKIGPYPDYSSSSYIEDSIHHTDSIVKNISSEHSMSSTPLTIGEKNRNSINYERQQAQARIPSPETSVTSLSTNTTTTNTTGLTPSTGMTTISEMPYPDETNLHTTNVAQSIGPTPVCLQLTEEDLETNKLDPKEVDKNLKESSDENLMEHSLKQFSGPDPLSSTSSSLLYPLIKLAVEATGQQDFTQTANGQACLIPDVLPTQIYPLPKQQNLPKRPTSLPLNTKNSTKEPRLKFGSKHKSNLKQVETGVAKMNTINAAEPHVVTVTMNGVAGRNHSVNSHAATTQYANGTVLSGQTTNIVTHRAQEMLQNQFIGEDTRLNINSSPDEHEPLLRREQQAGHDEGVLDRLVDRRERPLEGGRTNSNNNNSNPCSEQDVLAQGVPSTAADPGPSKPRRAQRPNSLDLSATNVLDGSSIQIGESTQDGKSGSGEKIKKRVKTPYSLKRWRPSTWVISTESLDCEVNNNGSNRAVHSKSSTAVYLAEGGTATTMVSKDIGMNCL
UniProt Q15797: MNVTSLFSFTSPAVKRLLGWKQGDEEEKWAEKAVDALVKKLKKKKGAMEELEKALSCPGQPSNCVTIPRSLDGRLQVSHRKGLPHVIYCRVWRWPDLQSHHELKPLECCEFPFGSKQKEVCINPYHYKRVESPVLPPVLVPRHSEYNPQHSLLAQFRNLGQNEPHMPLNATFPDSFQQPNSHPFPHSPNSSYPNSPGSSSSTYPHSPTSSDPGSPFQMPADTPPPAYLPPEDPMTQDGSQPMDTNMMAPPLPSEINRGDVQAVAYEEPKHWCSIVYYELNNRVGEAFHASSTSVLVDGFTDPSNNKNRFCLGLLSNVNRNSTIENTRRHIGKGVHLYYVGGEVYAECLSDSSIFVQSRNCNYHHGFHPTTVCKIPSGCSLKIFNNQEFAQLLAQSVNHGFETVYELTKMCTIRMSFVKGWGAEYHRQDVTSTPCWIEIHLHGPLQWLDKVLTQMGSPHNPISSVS
UniProt Q15796: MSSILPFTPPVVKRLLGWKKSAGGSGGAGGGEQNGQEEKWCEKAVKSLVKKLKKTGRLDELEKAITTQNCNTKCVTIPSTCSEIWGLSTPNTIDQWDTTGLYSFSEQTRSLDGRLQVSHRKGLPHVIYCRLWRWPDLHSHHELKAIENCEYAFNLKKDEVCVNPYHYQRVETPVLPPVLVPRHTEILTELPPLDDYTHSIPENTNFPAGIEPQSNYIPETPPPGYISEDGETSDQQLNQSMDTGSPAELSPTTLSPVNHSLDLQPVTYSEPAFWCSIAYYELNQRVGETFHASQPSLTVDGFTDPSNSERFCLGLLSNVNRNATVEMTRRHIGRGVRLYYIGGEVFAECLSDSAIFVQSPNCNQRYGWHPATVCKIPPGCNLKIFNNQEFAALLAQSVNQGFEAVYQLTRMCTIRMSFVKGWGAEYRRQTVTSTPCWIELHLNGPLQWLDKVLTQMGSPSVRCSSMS

Legend:
[1] = biological target: TGF-β receptor complex (wild type TβR-I and TβR-II) (UniProt P36897); test: co-IP of labeled receptors
[2] = biological target: TGF-β receptor complex (wild type TβR-I and TβR-II) (UniProt P36897); test: co-IP of labeled receptors (FIG. 12A)
[3] = biological target: BMP receptor complex (wild type BMPR-IB and BMPR-II) (human) (UniProt O00238+Q13873); test: co-precipitation of labeled wild type BMP receptors with Flag-Smad1(1-454) (FIG. 20A)
[4] = biological target: TβR-I(LB), TβR-I with the BMPR-I L45 loop, with TβR-II (UniProt P36897); test: co-precipitation of 125I-TGF-β1-labeled receptors with Flag-Smad1(1-454) (FIG. 20A)
[5] = biological target: TGF-β receptor complex (wild type TβR-I and TβR-II) (UniProt P36897); test: co-IP of labeled receptors (FIG. 14B)
[6] = biological target: TGF-β receptor complex (wild type TβR-I and TβR-II) (UniProt P36897); test: co-IP of 125I-TGF-β1 cross-linked receptors with Flag-Smad2
[7] = biological target: T1, Fast1 (DNA-binding factor, forkhead family) (UniProt P70056); test: co-IP of myc-Fast1 with Flag-Smad
T1 sequence (looked up): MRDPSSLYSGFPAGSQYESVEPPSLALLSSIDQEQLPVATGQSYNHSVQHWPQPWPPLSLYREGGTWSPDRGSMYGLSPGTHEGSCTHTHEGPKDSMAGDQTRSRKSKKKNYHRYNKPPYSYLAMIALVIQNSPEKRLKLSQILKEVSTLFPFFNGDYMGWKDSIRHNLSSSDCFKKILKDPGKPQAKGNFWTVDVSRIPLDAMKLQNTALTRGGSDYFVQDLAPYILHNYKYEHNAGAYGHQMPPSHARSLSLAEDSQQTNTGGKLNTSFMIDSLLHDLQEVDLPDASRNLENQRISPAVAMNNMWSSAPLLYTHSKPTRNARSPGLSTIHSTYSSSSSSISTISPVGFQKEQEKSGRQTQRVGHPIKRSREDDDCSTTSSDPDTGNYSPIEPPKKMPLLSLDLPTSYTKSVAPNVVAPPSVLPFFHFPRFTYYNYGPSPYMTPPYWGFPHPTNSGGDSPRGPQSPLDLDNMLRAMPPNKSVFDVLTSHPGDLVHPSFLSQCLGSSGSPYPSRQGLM

Substance: Smad1(1-454), Smad1 lacking the last 11 amino acids (from UniProt Q15797 1-454)
- binding [3]: binds
- binding [4]: binds

Substance: Smad2 W368F (from UniProt Q15796 272-467)
- binding [1]: binds

Substance: Smad2 A392Q (from UniProt Q15796 272-467)
- binding [1]: binds

Substance: Smad2, full-length, wild type (from UniProt Q15796 272-467)
- binding [5]: binds
- binding [6]: binds
- binding [7]: binds

Now from value to substance:

- binding [1]: binds
Substance: Smad2 Q407E (from UniProt Q15796 272-467)

- binding [2]: binds
Substance: Smad2(D450E) (from UniProt Q15796 272-467)

- binding [1]: binds
Substance: Smad2 P360R (from UniProt Q15796 272-467)

- binding [1]: binds
Substance: Smad2 A404T (from UniProt Q15796 272-467)
